Source: patent US8603465B1, “Methods for treatment of polyposis” (Merck Sharp & Dohme, Corp., priority 2006, dated 2013)
For at least one compound, name, drawing or mass did not settle the structure.

Tested on: C57Bl/6J (hIGF1R, Apc^Min/+) mice
Assay: Inhibition of polyposis in human IGF1R knock-in Apc Min/+ mice (adenoma number and diameter scored at postnatal day 80)
Assay type: in vivo
Settings: small intestine and colon, 19D12 0.02, 0.1, 0.5 mg/mouse i.p. once a week, celecoxib 150, 500, 1500 ppm in diet
Description: In this example, the ability of anti-IGF1R antibody 19D12 (LCF/HCA: amino acids 20-128 of SEQ ID NO: 8 and 20-137 of SEQ ID NO: 10) to treat familial adenomatous polyposis (FAP) is established in a mouse model for the disease. The model comprises the Apc^Min/+ allele which imparts the FAP phenotype. A phenotype that results from the allele is increased development of intestinal adenomas. The Min mutant mouse has an autosomal dominant heterozygous nonsense mutation in the mouse Apc gene (see e.g., Su et al., Science (Wash D.C.) 256: 668-670 (1992)).
The Min mice are also engineered, by a knock-in mutation, to express the human IGF1R gene. Expression of the IGF1R gene, in the Min mouse, allows determination of the ability of an anti-IGF1R antibody to alleviate the FAP phenotype. […]
Small intestinal adenomas and colonic adenomas are scored for number and diameter at postnatal day 80. […] Small intestine surface area is calculated by summation of the multiples of length of each fixed segment by width, which is measured at the midpoint of each segment. Colon surface area is calculated by multiplying the length of the fixed material from the anorectal junction to the point of insertion of the small intestine, omitting the appendix, by the width at the midpoint. Raw numbers of adenomas observed as well as adenomas per unit of small intestine and colon surface area are calculated.

## Cc1ccc(-c2cc(C(F)(F)F)nn2-c2ccc(S(N)(=O)=O)cc2)cc1 [celecoxib]
  adenomas per unit surface area: dose-dependent reduction
  raw adenoma number: dose-dependent reduction
